Measurements: the supplement of paper PMC10338343
± gives the standard deviation. This is a selection; strong and weak results do not stand in their true shares. Many of these values have a large error.

System: MIWI (PIWIL1) piRISC loaded with L1MC piRNA (30 nt)
Test: pre-steady-state target cleavage rate (min^-1); MIWI and MILI are mouse PIWI proteins and EfPiwi is from a freshwater sponge; tags in brackets are library labels; higher = faster piRNA-guided slicing of the target
Conditions: guide: L1MC piRNA 5'p-UAACUAAAUACUAUGCAAGCUGUAGGUCCU
Outline: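 The pre-steady-state cleavage rate was calculated from a burst-and-steady-state fit. Data came from Cleave-'n-Seq, in which […] transcribed, DNA-blocked target RNA library was mixed with 1 nM active affinity-purified piRISC carrying one synthetic guide, with or without 500 nM GTSF1 partner protein, in HEPES–potassium acetate buffer at 33 °C for 0–8 or 0–960 min. Uncleaved targets were sequenced and normalised to depth and to weakly complementary targets, three trials were pooled, and k3 was capped at 0.0001 min^-1.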

[1] = auxiliary factor: 500 nM mouse GTSF1
[2] = auxiliary factor: none (no GTSF1)
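Further: 1 nM active piRISC with 0.1 nM target library at 33 °C single turnover.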

Sequence | pre-steady-state target cleavage rate [1] | pre-steady-state target cleavage rate [2]
UCCACCAACAGCUUGCAUAGUAUUUAGUUA | 1.06 ± 0.037 | 0.0618 ± 0.011
UCCUGGAUGUCGAACCAUAGUAUUUCGUUA | 0.000494 ± 0.0081 | 0.000286 ± 0.016
UCCAGCUACAGCUUGCAUAGUAUUUAGUUA | 0.682 ± 0.042 | 0.0438 ± 0.0056
AGGACCUACAGGUAGCAUAGUAUUUAGUUA | 1.04 ± 0.054 | 0.00995 ± 0.0022
UCCAGCUACAGCUUGCAUAGUUUUUAGUUA | 0.253 ± 0.026 | 0.0203 ± 0.0032
UCGACCUACAGCUUGCAUAGUAUUUAGCUUA | 0.375 ± 0.05 | 0.0283 ± 0.0087
ACGACCUACAGCUAGCAUAGUAUUUAGUUA | 1.3 ± 0.052 | 0.0406 ± 0.0091
UCCACUCUACAGCUUGCAUAGUAUUUAGUUA | 0.884 ± 0.029 | 0.0688 ± 0.012
UCGACCUACAGCUUGCAUAGUAUUCUAGUUA | 0.882 ± 0.094 | 0.0316 ± 0.0072
UGGACCUCACAGCUUGCAUAGUAUUUAGUUA | 1.46 ± 0.084 | 0.0711 ± 0.014
UCCUGGAUGAGCUUCGUUAGUAUUUAGUUA | 0.000565 ± 0.011 | 0.000498 ± 0.01
UGGAGCUUCAGCUUGCAUAGUAUUUAGUUA | 1.34 ± 0.048 | 0.0706 ± 0.01
UCGUCGUACAGCUUGCAUAGUAUUUAGUUA | 1.31 ± 0.067 | 0.0685 ± 0.012
UCCACGUACAGCUUGCUUAGUAUUUAGUUA | 1.31 ± 0.058 | 0.0408 ± 0.0091
UGGACCAACAGCUUGCAUAGUAUUUAGUAA | 1.17 ± 0.06 | 0.0641 ± 0.015
UCCUGCAACAGCUUGCAAAGUAUUUAGUUA | 1.32 ± 0.076 | 0.0463 ± 0.01
AGGACCUACACCUUGGAUAGUAUUUAGUUA | 0.817 ± 0.061 | 0.0497 ± 0.0086
AGGACCUACAGCUUGCAUAGAUAUUUAGUUA | 0.143 ± 0.048 | 0.0018 ± 0.0059
UCGACCUACAGCGUGCAUAGUAUUUAGUUA | 1.73 ± 0.072 | 0.0576 ± 0.0085
UCGACCUACAGCUUGCUUAGUAUAUAGUUA | 0.879 ± 0.063 | 0.0168 ± 0.004
UGGAACCUACAGCUUGCAUAGUAUUUAGUUA | 1.41 ± 0.1 | 0.0747 ± 0.016
UGGACCUACAGCAACCAUAGUAUUUACAAA | 0.000856 ± 0.0065 | 0.000469 ± 0.01
UCCUGGAUGUGCUUGCUAUAGUAUUUAGUUA | 0.00166 ± 0.0079 | 0.000963 ± 0.0097
AGCUGCUACAGCUUGCAUAGUAUUUAGUAA | 0.977 ± 0.11 | 0.0202 ± 0.0038
UCCUGGUACAGCUUGCAUAGCUAUUUAGUUA | 0.0034 ± 0.0042 | 0.00129 ± 0.0068
UGCUCCUACAGCUUGCAUAGUAUUUAGUAA | 1.07 ± 0.045 | 0.0382 ± 0.0079

Single records, as listed above. Values in the order: pre-steady-state target cleavage rate [1] | pre-steady-state target cleavage rate [2]
UCCUGGAUGUGCUUGCUAUAGUAUUUAGUUA is listed with 0.00166 ± 0.0079 | 0.000963 ± 0.0097
UGCUCCUACAGCUUGCAUAGUAUUUAGUAA is listed with 1.07 ± 0.045 | 0.0382 ± 0.0079
